The values that follow are results of earlier work, collected in paper PMC6469618 (Environmental Science and Pollution Research International, 2019).

The subject of this data set is water louse. The note with it: naturalistic pond experiment; ref Lagesson et al. 2016; cited from earlier work.

Consider `CN(C)CCOC(c1ccccc1)c1ccccc1` [diphenhydramine], for which the “Bioconcentration in water louse compared to European perch (Perca fluviatilis)” value is on record as “higher levels”.
